According to patent US8466185B2, “Methods and assays for detecting and treating hypoglycemia” (priority 2008, dated 2013):
For at least one compound, name, drawing or mass did not settle the structure.

Test system: monkey islets and dispersed single islet cells
Experiment: [Ca^2+]i imaging (Fura-2) of monkey islets and islet cells
Format: cell-based, monkey (Macacca fascicularis)
Conditions: CNQX 10 μM; La^3+ 30 μM; nifedipine 10 μM
Description: Imaging of [Ca^2+]i was performed as described elsewhere (Cabrera et al., 2006). […] Glucose was added to give a final concentration of 3 mM. Islets or dispersed islet cells were incubated in Fura-2 AM (2 μM; 1 hour) and placed in a closed small-volume imaging chamber (Warner Instruments, Hamden, Conn.). Stimuli were applied with the bathing solution. Islets loaded with Fura-2 were excited alternatively at 340 and 380 nm with a monochromator light source (Cairn. Research Optoscan Monochromator, Cairn Research Ltd, Faversham, UK). Images were acquired with a Hamamatsu camera (Hamamatsu Corp, Japan) attached to a Zeiss Axiovert 200 microscope (Carl Zeiss, Jena, Germany). Changes in the 340/380 fluorescence emission ratio over time were analyzed in individual islets and dispersed cells using Kinetic Imaging AQM Advance software (Kinetic Imaging, N.C.). Peak changes in the fluorescence ratio constituted the response amplitude.

COC(=O)C1=C(C)NC(C)=C(C(=O)OC)C1c1ccccc1[N+](=O)[O-] [nifedipine]
inhibition of [Ca^2+]i responses to kainate: inhibited
